Results deposited as PubChem BioAssay AID1259405 (NCATS, 2018).
In all, the deposit lists about 50,000 reagents; below is an unselected part. About 4,000 of all reagents (8%) were called active. 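Mouse siRNA library applied to hamster cells; one well for each siRNA.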 Reagents against one gene are numbered here.

- Aim: 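Silenced genes that increase secreted GFP made by CHO cells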 (primary screen)
- System: Chinese hamster CHO-K1 ovary cells with stable secreted eGFP expression
- Knock-down reagent: single siRNA against mouse genes, 0.8 pmol siRNA per well (2 µl of 400 nM stock)
- Timing: 3 days
- Measured: 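Percent of the per-plate non-targeting control median for intracellular GFP per well by laser scanning cytometry and for cell viability by ATP luminescence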
- Reading the numbers: GFP, % of control: higher = more GFP per well, higher productivity; viability (ATP), % of control: higher = more viable cells (more ATP)
- Rule for the call: 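a knock-down is called active if GFP reaches 120% or more of non-targeting control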

gene symbol	siRNA no.	GFP, % of control	viability (ATP), % of control	activity call
Vmac	1	60.1	75.8	inactive
Vmac	2	72.5	89.4	inactive
Vmac	3	40.2	43.5	inactive
Ppat (phosphoribosyl pyrophosphate amidotransferase)	1	77	92.2	inactive
Ppat (phosphoribosyl pyrophosphate amidotransferase)	2	106	89.8	inactive
Ppat (phosphoribosyl pyrophosphate amidotransferase)	3	63	98.9	inactive
Ciao3 (cytosolic iron-sulfur assembly component 3)	1	230	61.6	active
Ciao3 (cytosolic iron-sulfur assembly component 3)	2	67.7	35	inactive
Ciao3 (cytosolic iron-sulfur assembly component 3)	3	76.6	89	inactive
Ciao3 (cytosolic iron-sulfur assembly component 3)	4	89.6	86.1	inactive
Ciao3 (cytosolic iron-sulfur assembly component 3)	5	59.6	93.2	inactive
Ciao3 (cytosolic iron-sulfur assembly component 3)	6	86.3	92.9	inactive
Tgfbr2 (transforming growth factor, beta receptor II)	1	111	89.4	inactive
Tgfbr2 (transforming growth factor, beta receptor II)	2	71.9	89.5	inactive
Tgfbr2 (transforming growth factor, beta receptor II)	3	66.4	66.1	inactive
Vps29 (VPS29 retromer complex component)	1	51.8	58.1	inactive
Vps29 (VPS29 retromer complex component)	2	56.4	74.3	inactive
Vps29 (VPS29 retromer complex component)	3	58.4	93.7	inactive
Vamp8 (vesicle-associated membrane protein 8)	1	45.6	55.1	inactive
Vamp8 (vesicle-associated membrane protein 8)	2	82.6	80.9	inactive
Vamp8 (vesicle-associated membrane protein 8)	3	47	48.7	inactive
Psmb1 (proteasome (prosome, macropain) subunit, beta type 1)	1	19.7	12.4	inactive
Psmb1 (proteasome (prosome, macropain) subunit, beta type 1)	2	87.4	56	inactive
Psmb1 (proteasome (prosome, macropain) subunit, beta type 1)	3	58.9	45.7	inactive
Nrn1 (neuritin 1)	1	70.4	69.3	inactive
Nrn1 (neuritin 1)	2	84.3	74.3	inactive
Nrn1 (neuritin 1)	3	78.8	49.8	inactive
Mfap3 (microfibrillar-associated protein 3)	1	60.7	76.2	inactive
Mfap3 (microfibrillar-associated protein 3)	2	72.5	83.6	inactive
Mfap3 (microfibrillar-associated protein 3)	3	66.8	65.2	inactive
Golph3l (golgi phosphoprotein 3-like)	1	83.2	83.3	inactive
Golph3l (golgi phosphoprotein 3-like)	2	78	45.8	inactive
Golph3l (golgi phosphoprotein 3-like)	3	47.5	39.8	inactive

Already shown: 4 of the entries above.
gene symbol	siRNA no.	GFP, % of control	viability (ATP), % of control	activity call
Mfap3 (microfibrillar-associated protein 3)	3	66.8	65.2	inactive
Golph3l (golgi phosphoprotein 3-like)	1	83.2	83.3	inactive
Golph3l (golgi phosphoprotein 3-like)	2	78	45.8	inactive
Golph3l (golgi phosphoprotein 3-like)	3	47.5	39.8	inactive

The list goes on.
gene symbol	siRNA no.	GFP, % of control	viability (ATP), % of control	activity call
Cep89 (centrosomal protein 89)	1	85.6	72.9	inactive
Cep89 (centrosomal protein 89)	2	103	51.8	inactive
Cep89 (centrosomal protein 89)	3	119	77.3	inactive
Gnptg (N-acetylglucosamine-1-phosphotransferase, gamma subunit)	1	110	107	inactive
Gnptg (N-acetylglucosamine-1-phosphotransferase, gamma subunit)	2	95.3	124	inactive
Gnptg (N-acetylglucosamine-1-phosphotransferase, gamma subunit)	3	135	109	active
Hoxa3 (homeobox A3)	1	65.4	105	inactive
Hoxa3 (homeobox A3)	2	94.3	69.9	inactive
Hoxa3 (homeobox A3)	3	69.1	105	inactive
Ube2g1 (ubiquitin-conjugating enzyme E2G 1)	1	73.3	79.4	inactive
Ube2g1 (ubiquitin-conjugating enzyme E2G 1)	2	54	67.6	inactive
Ube2g1 (ubiquitin-conjugating enzyme E2G 1)	3	99.4	132	inactive
D630003M21Rik (RIKEN cDNA D630003M21 gene)	1	61.6	50.5	inactive
D630003M21Rik (RIKEN cDNA D630003M21 gene)	2	149	104	active
D630003M21Rik (RIKEN cDNA D630003M21 gene)	3	98.5	89.5	inactive
Fibin (fin bud initiation factor homolog (zebrafish))	1	115	108	inactive
Fibin (fin bud initiation factor homolog (zebrafish))	2	89.1	77.9	inactive
Fibin (fin bud initiation factor homolog (zebrafish))	3	176	61.4	active
Fibin (fin bud initiation factor homolog (zebrafish))	4	86.5	86.9	inactive
Fibin (fin bud initiation factor homolog (zebrafish))	5	89.1	77.9	inactive
Fibin (fin bud initiation factor homolog (zebrafish))	6	64.5	86.7	inactive
Matk (megakaryocyte-associated tyrosine kinase)	1	69	55.4	inactive
Matk (megakaryocyte-associated tyrosine kinase)	2	64.9	89.4	inactive
Matk (megakaryocyte-associated tyrosine kinase)	3	69.2	78.9	inactive
Six2 (sine oculis-related homeobox 2)	1	85.7	58.2	inactive
Six2 (sine oculis-related homeobox 2)	2	69.9	73	inactive
Six2 (sine oculis-related homeobox 2)	3	74	71.6	inactive
Zeb1 (zinc finger E-box binding homeobox 1)	1	84.1	102	inactive
Zeb1 (zinc finger E-box binding homeobox 1)	2	82.8	61.2	inactive
Zeb1 (zinc finger E-box binding homeobox 1)	3	126	130	active
Dcp1a (decapping mRNA 1A)	1	72.2	87.2	inactive
Dcp1a (decapping mRNA 1A)	2	114	80.3	inactive
Slc16a8	1	68.4	82.8	inactive
Slc16a8	2	113	66.6	inactive
Slc16a8	3	153	126	active
1700025G04Rik (RIKEN cDNA 1700025G04 gene)	1	59.9	86.8	inactive
1700025G04Rik (RIKEN cDNA 1700025G04 gene)	2	60.1	113	inactive
1700025G04Rik (RIKEN cDNA 1700025G04 gene)	3	89.1	112	inactive
Qtgal (queuosine-tRNA galactosyltransferase)	1	65.9	74.6	inactive
Qtgal (queuosine-tRNA galactosyltransferase)	2	61.8	39.8	inactive
Qtgal (queuosine-tRNA galactosyltransferase)	3	43.6	72.9	inactive
Terf2ip (telomeric repeat binding factor 2, interacting protein)	1	67.2	71.8	inactive
Terf2ip (telomeric repeat binding factor 2, interacting protein)	2	64.7	85.3	inactive
Gpcpd1 (glycerophosphocholine phosphodiesterase 1)	1	31.1	45.8	inactive
Gpcpd1 (glycerophosphocholine phosphodiesterase 1)	2	99.1	77.7	inactive
Gpcpd1 (glycerophosphocholine phosphodiesterase 1)	3	73.9	83.6	inactive
Gde1 (glycerophosphodiester phosphodiesterase 1)	1	134	83	active
Gde1 (glycerophosphodiester phosphodiesterase 1)	2	122	59.9	active
Gde1 (glycerophosphodiester phosphodiesterase 1)	3	102	87.5	inactive
Oga (O-GlcNAcase)	1	104	67.5	inactive
Oga (O-GlcNAcase)	2	60.4	68.8	inactive
Oga (O-GlcNAcase)	3	90.5	74.3	inactive
